The experiment deals with Fkh2-YFP (C. albicans) (UniProt Q5A7S7). Nature of the experiment: co-IP; Fkh2-YFP/GFP precipitated with anti-GFP antibody on protein-G Dynabeads from 2 mg total protein, 40 min post hyphal induction; washed twice with lysis buffer containing 150 mM NaCl; anti-HA blot; control strain expressing only the HA-tagged protein.

Sequences of proteins named here, by UniProt entry; tags and fusion partners are left off.
UniProt Q5A7S7: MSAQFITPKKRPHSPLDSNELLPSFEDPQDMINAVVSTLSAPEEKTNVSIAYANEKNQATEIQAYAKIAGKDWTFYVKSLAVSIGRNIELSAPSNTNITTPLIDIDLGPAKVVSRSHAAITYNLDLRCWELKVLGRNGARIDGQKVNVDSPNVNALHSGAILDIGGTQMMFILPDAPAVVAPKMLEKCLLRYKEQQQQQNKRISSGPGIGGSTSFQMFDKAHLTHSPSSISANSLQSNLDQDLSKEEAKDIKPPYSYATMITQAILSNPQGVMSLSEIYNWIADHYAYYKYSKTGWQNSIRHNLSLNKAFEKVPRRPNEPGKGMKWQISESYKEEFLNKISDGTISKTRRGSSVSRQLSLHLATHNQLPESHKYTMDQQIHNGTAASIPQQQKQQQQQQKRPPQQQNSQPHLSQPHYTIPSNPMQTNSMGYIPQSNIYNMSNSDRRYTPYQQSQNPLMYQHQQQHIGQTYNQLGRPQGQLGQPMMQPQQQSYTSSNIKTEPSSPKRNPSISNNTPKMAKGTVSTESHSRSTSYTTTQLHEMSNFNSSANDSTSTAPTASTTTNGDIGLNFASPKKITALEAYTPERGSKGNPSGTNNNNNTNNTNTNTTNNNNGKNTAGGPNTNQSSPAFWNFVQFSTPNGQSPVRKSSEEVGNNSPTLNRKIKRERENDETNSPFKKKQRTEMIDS
UniProt Q5ALL8: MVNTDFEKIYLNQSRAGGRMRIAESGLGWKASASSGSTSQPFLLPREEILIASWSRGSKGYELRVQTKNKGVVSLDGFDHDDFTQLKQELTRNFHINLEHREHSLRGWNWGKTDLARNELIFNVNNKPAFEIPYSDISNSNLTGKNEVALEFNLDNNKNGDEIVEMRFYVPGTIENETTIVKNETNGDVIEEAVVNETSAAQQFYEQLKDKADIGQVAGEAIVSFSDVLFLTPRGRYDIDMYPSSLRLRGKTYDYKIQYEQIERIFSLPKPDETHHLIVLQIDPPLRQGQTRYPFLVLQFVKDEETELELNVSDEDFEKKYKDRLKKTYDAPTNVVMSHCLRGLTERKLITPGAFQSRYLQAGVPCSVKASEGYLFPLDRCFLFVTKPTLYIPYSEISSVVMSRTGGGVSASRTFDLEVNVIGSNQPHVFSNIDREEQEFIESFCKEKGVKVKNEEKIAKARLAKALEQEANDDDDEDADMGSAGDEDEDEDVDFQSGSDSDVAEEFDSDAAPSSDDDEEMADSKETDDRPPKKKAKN

These are yes or no findings as the source states them, for the method shown. In cells and extracts the contact can be indirect. Some results given as binding are weak or reduced against the parent protein; the word gives no strength.

As to Pob3-HA (from UniProt Q5ALL8 1-538), the binding entry was “binds”.

Values taken from publication PMC4305328.
